This data set deals with Canines. Kind of data set: Myocardial BOLD CMR, 2D T2 maps post regadenoson (Example 1). The format is in vivo. How it is done: Canines (n=7) were studied in a PET/MR system. MR acquisitions were used to generate short-axis 2D T2 maps; and the PET acquisitions following ^[…]-ammonia infusion were used to quantify myocardial blood flow (MBF). Initially, 2D T2 maps and PET signals were acquired at rest. Subsequently, regadenoson (2.5 μg/kg) was administrated. T2 maps were acquired at 2- and 10-mins p.r.a and PET signals were acquired at 10-mins p.r.a. Standard deviation (a) of myocardial T2 values was measured at rest, 2- and 10-mins p.r.a from T2 maps and were used to determine Myocardial BOLD Variability (MBV, defined as σT2(stress)/σT2(rest)) at 2- and 10-min p.r.a. Similarly, using the mean T2 values, Myocardial BOLD Response (MBR, defined as T2(stress)/T2(rest)) was computed at 10-mins p.r.a. PET images were analyzed with qPET software to determine MBF and MPR at rest and 10-mins p.r.a and were regressed against MBR.

On to `CNC(=O)c1cnn(-c2nc(N)c3ncn([C@@H]4O[C@H](CO)[C@@H](O)[C@H]4O)c3n2)c1` [regadenoson], for which the “Myocardial BOLD Variability (MBV, σT2(stress)/σT2(rest))” value (2-mins post regadenoson administration) was 1.6±0.9 and the “Myocardial BOLD Variability (MBV, σT2(stress)/σT2(rest))” value (10-mins post regadenoson administration) stood at 1.0±0.3.
